Source: PubChem BioAssay AID1347076 (National Center for Advancing Translational Sciences (NCATS), 2019)
The campaign covered roughly 400,000 compounds. About 13,000 (3.2%) were called active. The shares of active, inactive and inconclusive entries below differ from those in the screen. Calls follow the shape of the dose curve; as a rule, active = well fitted cell-killing curve with a large enough effect; inconclusive = small, poorly fitted or top-dose-only effect, or effect the other way; inactive = flat fitted curve, though single readings scatter. Potencies beside an inconclusive call are fits to weak or partial responses and may not hold up.

Test: qHTS assay for MDR1-selective chemotherapeutics: Primary screen using the drug-selected MDR subline cells KB-V1; also: nearly all actives have a fitted effect of over 60% in size
Conditions: KB-V1 MDR cells viability, CellTiter-Glo, 72 h; activity change, negative = cytotoxicity: at 46.1 µM (top of the series)
How it was run: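 Cytotoxicity toward P-gp-expressing KB-V1 cells was determined as loss of CellTiter-Glo luminescence after 72 h at 37 degrees C. Compounds were tested in quantitative HTS format across a concentration range, with curves fitted to normalized data.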
% is scaled to controls: 0 for no effect and ±100 for the full control effect; potency is read from the fitted curve at half-maximal effect.

Row | SMILES | Potency | activity change, negative = cytotoxicity
1 | COc1ccccc1N1CCN(C(=O)c2ccc(CS(=O)c3ccccc3C)o2)CC1 (configuration not stated) | inconclusive: 29.1 µM [cytotoxic, single point] | 
2 | COc1ccc(/C=C/C(=O)N(C)Cc2cccs2)cc1S(=O)(=O)N1CCOCC1 | inconclusive: 8.2 µM [cytotoxic, partial curve] | 
3 | Nn1c(SCC(=O)NC(=O)Nc2ccc3c(c2)OCCO3)nnc1C1CC1 | inconclusive: 23.1 µM [rising, partial curve] | 
4 | CC1(C)CC(=O)c2cnc3c(C#N)cnn3c2C1 | inconclusive: 0.231 µM [rising, full curve, poor fit] | 
5 | O=C(Nc1cccc(Cl)c1)Nc1ccccc1C(=O)NCc1ccco1 |  | inactive: -0.663%
6 | COc1ccc(Cc2nc3ccc(C(=O)NC4CCOC4)cc3o2)cc1 (configuration not stated) |  | inactive: -13.8%
7 | O=C(O)C1C(C(=O)O)C1(c1ccccc1)c1ccccc1 (configuration not stated) |  | inactive: 10.1%
8 | CCn1c(=O)cc(SCC(=O)Nc2ccc(Cl)cc2)c2ccccc21 | inconclusive: 23.1 µM [cytotoxic, partial curve] | 
9 | Cc1nc2c(-c3ccc(F)cc3)cnn2c(N)c1-c1ccccc1 |  | inactive: 13%
10 | Cc1nn(C)cc1C(C(=O)NC1CCCCC1)N(C(=O)Cc1cccs1)c1ccc(C(C)C)cc1 (configuration not stated) | active: 2.91 µM | 
11 | CC1=C(CC(=O)c2ccc(Cl)cc2)C(=O)c2ccccc2C1=O | active: 16.4 µM | 
12 | C=C(C)C1CC=C(CN2CC(C)OC(C)C2)CC1 (configuration not stated) | inconclusive: 29.1 µM [rising, single point] | 
13 | CCc1nnc(NS(=O)(=O)c2ccc(NC(=O)c3cccc(Br)c3)cc2)s1 |  | inconclusive: 28.8%
14 | OC(CNC1CCCC1)COc1ccccc1Br (configuration not stated) |  | inactive: -9.02%
15 | COc1ccc(Cl)cc1Nc1sc(C(=O)c2ccccc2)c(N)c1C(=O)Nc1ccccc1 | inconclusive: 20.6 µM [cytotoxic, single point] | 
16 | N#CCc1ccc(NC(=O)/C=C/c2ccc([N+](=O)[O-])o2)cc1 | inconclusive: 25.9 µM [cytotoxic, partial curve, poor fit] | 
17 | Cc1cc(OC(=O)c2ccc(C(F)(F)F)cc2)c([N+](=O)[O-])c(=O)[nH]1 | inconclusive: 1.46 µM [rising, full curve] | 
18 | Cc1c(C(C)C)c(=O)n(-c2ccc(S(=O)(=O)NC(C)C)cc2)n1C | inconclusive: 13 µM [cytotoxic, partial curve, poor fit] | 
19 | O=C(Nc1cc2c(cc1Br)OCCCO2)c1cccnc1 |  | inactive: -23.3%
20 | CCc1c(C)sc2c1CCN(Cc1cccc(F)c1)C2c1ccccc1 (configuration not stated) |  | inactive: 0%
21 | Clc1ccc(Cn2ncc3c(N4CCCCC4)ncnc32)cc1 | inconclusive: 18.4 µM [cytotoxic, single point] | 
22 | COC(=O)c1ccc2nc3c(cc2c1)[C@@H]1CCN2C(=O)CCC[C@H](C3)[C@H]12 | inconclusive: 23.1 µM [cytotoxic, partial curve, poor fit] | 
23 | c1ccc2nccnc2c1 | inconclusive: 16.4 µM [cytotoxic, partial curve, poor fit] | 
24 | CCCCOc1ccc(C(O)(CC)CCN2CCOCC2)cc1 (configuration not stated) | inconclusive: 23.1 µM [cytotoxic, single point] | 

Quoted at random: five compounds from above
Row | SMILES | Potency | activity change, negative = cytotoxicity
11 | CC1=C(CC(=O)c2ccc(Cl)cc2)C(=O)c2ccccc2C1=O | active: 16.4 µM | 
1 | COc1ccccc1N1CCN(C(=O)c2ccc(CS(=O)c3ccccc3C)o2)CC1 (configuration not stated) | inconclusive: 29.1 µM [cytotoxic, single point] | 
10 | Cc1nn(C)cc1C(C(=O)NC1CCCCC1)N(C(=O)Cc1cccs1)c1ccc(C(C)C)cc1 (configuration not stated) | active: 2.91 µM | 
22 | COC(=O)c1ccc2nc3c(cc2c1)[C@@H]1CCN2C(=O)CCC[C@H](C3)[C@H]12 | inconclusive: 23.1 µM [cytotoxic, partial curve, poor fit] | 
4 | CC1(C)CC(=O)c2cnc3c(C#N)cnn3c2C1 | inconclusive: 0.231 µM [rising, full curve, poor fit] | 

Next structures follow:

Row | SMILES | Potency | activity change, negative = cytotoxicity
25 | CN(C(=O)COC(=O)CSc1ccc([N+](=O)[O-])cc1)c1ccccc1 | inconclusive: 23.1 µM [rising, single point] | 
26 | CS(=O)(=O)c1ccc(CNC(=O)C2(C(F)(F)F)CC(CCCO)CCCO2)cc1 (configuration not stated) | inconclusive: 29.1 µM [cytotoxic, single point] | 
27 | NS(=O)(=O)c1ccc(CCNC(=O)c2ccc(S(=O)(=O)N3CCCCC3)cc2)cc1 | inconclusive: 29.1 µM [rising, single point] | 
28 | Cc1ccc(C(=O)n2c(N)nc3ccccc32)cc1 | inconclusive: 29.1 µM [cytotoxic, single point] | 
29 | C/C(=N\NC(=O)c1cccc([N+](=O)[O-])c1)c1cccs1 |  | inactive: -3.37%
30 | CC(=O)Nc1sc(/C(C#N)=C\c2cccc(Cl)c2)nc1-c1ccc(C)cc1 | inconclusive: 14.6 µM [cytotoxic, partial curve] | 
31 | COc1ccc(NS(=O)(=O)c2ccc3oc4ccccc4c3c2)cn1 | inconclusive: 25.9 µM [cytotoxic, single point] | 
32 | CC(C)NC(=O)c1ccc(CN2CCC(Cc3ccccc3)CC2)cc1 |  | inactive: -18.4%
33 | COc1ccc(N2C(=O)CN(Cc3cc(OC)c(OC)c(OC)c3)C2=S)cc1 | inconclusive: 9.2 µM [cytotoxic, partial curve] | 
34 | Cc1ccc(NC(=O)c2cc(C(C)(C)C)nn2Cc2ccccc2)cc1 | inconclusive: 29.1 µM [cytotoxic, single point] | 
35 | Brc1ccc(CSc2nnc(-c3cnccn3)n2Cc2ccco2)cc1 | active: 9.2 µM | 
36 | CC1(C)OC2C(CO)OC(n3cnc4c(=S)nc[nH]c43)C2O1 (configuration not stated) | inconclusive: 16.4 µM [cytotoxic, single point] | 
37 | Cc1ccc(S(=O)(=O)c2nc(-c3ccccc3F)oc2N2CCCCC2)cc1 | inconclusive: 5.17 µM [cytotoxic, full curve] | 
38 | Cc1ccc(-c2cc(C(=O)NCc3cnn(C)c3C)c3cc(Br)ccc3n2)cc1 | inconclusive: 29.1 µM [cytotoxic, single point] | 
39 | O=C(CN1CCN(C(=O)c2ccccc2)CC1)Nc1ncc(Br)cc1Br |  | inactive: -11.2%
40 | COc1ccccc1N(Cc1ccccc1)S(=O)(=O)c1cccc(C(=O)Nc2ncccc2C)c1 | inconclusive: 16.4 µM [cytotoxic, single point] | 
41 | CC1(C)CC(=Cc2cc(O)ccc2[N+](=O)[O-])C(=O)c2ccccc21 | inconclusive: 29.1 µM [cytotoxic, single point] | 
42 | CC(C)(C)n1nnnc1C(c1cccs1)N(Cc1cccnc1)Cc1ccccc1Cl (configuration not stated) | inconclusive: 23.1 µM [cytotoxic, single point] | 
43 | COc1cccc(NC(=O)CN(C)C(=O)c2ccccc2-c2nc3ccccc3s2)c1 | active: 18.4 µM | 
44 | Brc1ccc2nc(C3CCCCC3)c(CC3CCCCC3)n2c1 |  | inactive: 14.3%
45 | CC(=O)CC(c1ccccc1)S(=O)(=O)c1ccc([N+](=O)[O-])cc1 (configuration not stated) | inconclusive: 1.64 µM [cytotoxic, partial curve, poor fit] | 
46 | N#CC1=C(N)Oc2cc(O)ccc2C1c1ccccc1 (configuration not stated) | active: 18.4 µM | 
47 | Cc1cc(-c2nn(-c3ccccc3)cc2/C=C2\SC(N)=NC2=O)ccc1OC(C)C | active: 16.4 µM | 
48 | COc1cccc(CN(C)CCCn2cnc3c(OC)ncnc32)c1 | inconclusive: 25.9 µM [cytotoxic, single point] | 

Row | SMILES | Potency | activity change, negative = cytotoxicity
49 | CCn1c(/C=C/c2cc(Br)ccc2O)nc2ccccc2c1=O |  | inactive: -23.1%
50 | CCOC(=O)N1CCN(C(=O)c2noc(C(C)C)c2[N+](=O)[O-])CC1 | inconclusive: 29.1 µM [rising, single point] | 
51 | CCSc1nsc(NC(=O)Nc2ccc(F)cc2F)n1 | active: 14.6 µM | 
52 | COc1cccc(CNc2nc3cc(-c4cccc(C(F)(F)F)c4)sc3c(=O)n2C)c1OC |  | inactive: -23.3%
53 | CCN(CC)S(=O)(=O)c1ccc(OC)c(NC(=O)c2cc([N+](=O)[O-])ccc2N2CCOCC2)c1 |  | inactive: -13.2%
54 | COC(=O)c1sc(NC(=O)C2CCCO2)c(C(=O)OC)c1C (configuration not stated) |  | inactive: 3.98%
55 | CC(=O)N1N=C(c2ccccc2)OC1c1cccnc1 (configuration not stated) | inconclusive: 18.4 µM [rising, single point] | 
56 | O=C(NC1CC1)C1CCN(c2ncnc3c2sc2cccc(F)c23)CC1 | inconclusive: 2.91 µM [cytotoxic, partial curve, poor fit] | 
57 | CCOc1ccccc1C1CC(=O)Nc2cc(OC)c(OC)c(OC)c21 (configuration not stated) | inconclusive: 8.2 µM [cytotoxic, partial curve] | 
58 | CC(C)(C)c1nc(N2CCN(C(=O)c3ccco3)CC2)c2nnn(Cc3ccccc3)c2n1 | inconclusive: 29.1 µM [cytotoxic, single point] | 
59 | CC(=O)c1ccc(NS(=O)(=O)c2ccc3ccccc3c2)cc1 | active: 16.4 µM | 
60 | Cn1cnnc1SCc1ccc(C(=O)N=Nc2c(O)n(Cc3ccc(Cl)cc3)c3ccccc23)cc1 | inconclusive: 29.1 µM [cytotoxic, partial curve, poor fit] | 
61 | COc1ccc(OC)c(/C=C2\SC(=S)N(Cc3cccnc3)C2=O)c1 | active: 14.6 µM | 
62 | COc1cc2c(cc1OC)C(COc1ccccc1OC)N(C(=O)CC(C)C)CC2 (configuration not stated) | inconclusive: 0.92 µM [cytotoxic, full curve, poor fit] | 
63 | O=C(Cc1ccc([N+](=O)[O-])cc1)NCc1ccc2c(c1)OCO2 |  | inactive: -29.9%
64 | CC(C)CC(=O)Nc1ccccc1N1CCN(c2ccc(F)cc2)CC1 | inconclusive: 9.2 µM [cytotoxic, partial curve] | 
65 | COCCNc1nc(NCc2ccccc2F)c2sccc2n1 | inconclusive: 20.6 µM [cytotoxic, single point] | 
66 | S=C(N/N=C/c1cccc2ccccc12)Nc1cccc(Cl)c1 |  | inactive: 10.7%
67 | Cc1ccccc1NC(=O)c1ccc(CN2CCC(Cc3ccccc3)CC2)cc1 | active: 14.6 µM | 
68 | Cn1c(=O)c(C(=O)c2ccc(S(C)(=O)=O)c(Cl)c2Cl)c(O)c2ccccc21 |  | inactive: -6.17%
69 | CCCCC(OC(=O)CN1C(=O)COc2ccccc21)C(=O)NC1CCCCC1 (configuration not stated) |  | inactive: -22.1%
70 | CCOC(=O)C1=C(C)Nc2ccccc2N=C1NC(=O)Cc1ccc(Br)cc1 | inconclusive: 4.11 µM [cytotoxic, full curve] | 
71 | Cc1ccc(-n2c(SCC(=O)N/N=C/c3c(C)nn(-c4ccccc4)c3C)nc3ccccc3c2=O)cc1 |  | inactive: -14.5%
72 | N#Cc1ccc(COC(=O)c2ccc(N3CCCC3)c([N+](=O)[O-])c2)cc1 | inconclusive: 23.1 µM [cytotoxic, single point] | 
